## Results of single-concentration screens

By UniProt entry, the sequences of proteins in these tests, tags left out.
UniProt P9WFT3, whole entry: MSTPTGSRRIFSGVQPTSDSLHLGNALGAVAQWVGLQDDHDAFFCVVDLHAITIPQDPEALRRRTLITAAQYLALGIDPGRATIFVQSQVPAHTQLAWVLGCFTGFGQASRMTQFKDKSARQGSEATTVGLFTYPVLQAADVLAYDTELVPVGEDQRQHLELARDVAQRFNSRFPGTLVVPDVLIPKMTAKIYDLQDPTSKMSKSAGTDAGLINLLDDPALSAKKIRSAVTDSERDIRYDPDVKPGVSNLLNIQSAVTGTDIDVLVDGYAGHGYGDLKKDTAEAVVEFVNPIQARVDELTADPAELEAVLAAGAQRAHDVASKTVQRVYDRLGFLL

Source: ChEMBL document CHEMBL3988442, “University of Dundee, Small-Polar-MMV Screening Library” (2021).

Values are the deposited “Percent Effect”, in %.
How 0% and 100% were set is not recorded. Most values in the screen are low, and negative values occur.
This is an unselected part of the compounds tested.

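Tryptophan-tRNA ligase, Mycobacterium tuberculosis (UniProt P9WFT3). Enzyme assay of tryptophanyl-tRNA synthetase; the read-out is not stated. Compounds at 10 µM. Direction is not recorded; retested compounds ran higher, which suggests that high means inhibition. About 65,000 compounds were tested under these conditions; 0.098% (about 64) showed 50% or more at least once.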

| structure | percent effect |
|---|---|
| `CCc1nc(C2CCCN(C(=O)c3cc(C(C)C)[nH]n3)C2)no1` (stereo unspecified) | 3.894 |
| `COc1ccccc1S(=O)(=O)CCOC(C)C` | 0.000008 |
| `Cc1noc(C)c1CNC1CCN(c2ccccc2OC(F)F)C1` (stereo unspecified) | -1.083 |
| `O=C(c1ccc2[nH]c(=O)[nH]c2c1)N1CCC(Nc2cccnn2)CC1` | -0.4869 |
| `Cc1nnc([C@@H]2CC[C@@H]3[C@@H](CCN3Cc3ccccn3)O2)o1` | 0.9709 |
| `O=S(=O)(c1ccc2c(c1)CCC2)N1CCCC(Cn2cncn2)C1` (stereo unspecified) | 4.68 |
| `O=C(CN1CC(c2ccccc2)CC1=O)NCc1cc2n(n1)CCNC2` (stereo unspecified) | -4.644 |
| `CN(CC1(O)CCCN(c2ccccn2)C1)C(=O)Cc1ccsc1` (stereo unspecified) | 1.254 |
| `COCCN(C)CC(=O)N1CCCC2(CCC(=O)N(CC3CC3)C2)C1` (stereo unspecified) | 6.473 |
| `Cc1c(C)n(Cc2ccccn2)c2nc3c(c(N)c12)CCCC3` | 2.814 |
| `CC1(C)CNC(=O)c2nc(-c3nnn[nH]3)[nH]c2C1` | -0.854 |
| `CCOCc1ncn2c1CN(S(=O)(=O)c1ccc(F)cc1)CC2` | 1.526 |
| `COc1cccc(-c2nc3c([nH]2)CC(C)(C)CNC3=O)c1OC` | -3.137 |
| `COc1c(C)cnc(CN2CCCC2c2noc(C)n2)c1C` (stereo unspecified) | 0.9202 |
| `CN(C(=O)c1cccc(NCC(=O)O)c1)C(C1CC1)C1CC1` | 1.096 |
| `CC(C)n1ncc2cc(NC(=O)N3CCC(CO)CC3)cnc21` | -1.004 |
| `Cc1ccc(-c2nnc(C3CCCN3S(=O)(=O)c3cnn(C)c3C)o2)s1` (stereo unspecified) | -7.031 |
| `CC(C)c1nnc(NC(=O)CCC(=O)NCC2CCCO2)s1` (stereo unspecified) | -1.356 |
| `CCN(CC)C(=O)Cn1ccc2cc(NC(=O)COC)ccc21` | -5.838 |
| `CC(C)COC(C)C(=O)NCc1ccc(Cn2ccnc2)cc1` (stereo unspecified) | -7.339 |
| `CC(C)(C)NC(=O)COc1ccc(CNCCOc2ccccn2)cc1` | 2.656 |
| `CC(COCC(F)(F)F)NC(=O)c1ccc(-c2ccco2)[nH]c1=O` (stereo unspecified) | -3.846 |
| `Cc1noc(C)c1CN1CCC(c2ccnn2CCO)CC1` | -0.6489 |
| `CC(C)C1CN(C(=O)c2csc(CN(C)C)n2)CCC(=O)N1CC1CC1` (stereo unspecified) | 4.27 |
| `Cc1cnc(N2CC[C@@]3(O)CCCC[C@H]3C2)nc1-c1ccnn1C` | -2.971 |
| `Cc1cn2nc(N3CCN(Cc4cc(C)on4)CC3)sc2n1` | 1.022 |
| `CC(=O)N1CCC2(CCCN(Cc3ccc(Cl)c(C(F)(F)F)c3)C2)C1` (stereo unspecified) | 1.246 |
| `CC(NC(=O)NC1CCN(Cc2ccncc2)CC1)c1cccc(F)c1` (stereo unspecified) | 3.202 |
| `CCOCCCNC(=O)C(C)n1cc(Br)cn1` (stereo unspecified) | 1.864 |
| `Cc1ccc(N2CC[C@@H]3CN(Cc4cc[nH]n4)C[C@@H]3C2)nn1` | -0.7214 |
| `CCN1CCC2(CCC1=O)CN(C1CCOCC1)CCN2C` (stereo unspecified) | 3.06 |
| `CN1CCCC(CNS(=O)(=O)N2CCc3ccccc3C2)C1` (stereo unspecified) | 3.086 |
| `c1sc(C2CCCC2)nc1CN1CCn2c(nnc2C2CC2)C1` | -0.2916 |
| `O=C(c1cncc(Br)c1)N1CCCc2c(F)cc(F)cc21` | 0.2564 |
| `CCn1ncc2c1CCCC2NCc1cc(C)ccc1OC` (stereo unspecified) | -2.521 |
| `CN(C)CCN(C)C(=O)c1cnc2c(c1)nc(-c1ccccc1Cl)n2C` | -1.676 |
| `Cn1ccnc1CN1CCN2C[C@H](Oc3cncnc3)C[C@H]2C1` | 0.1627 |
| `CCCNC(=O)c1nn(CC)cc1NC(=O)c1cn(C)nc1C` | -5.25 |
| `CCN(Cc1ccco1)C(=O)NCC(C)N1CCc2sccc2C1` (stereo unspecified) | -5.815 |
| `Cc1noc(C2CCN(C(=O)c3ccc(NC4CC4)nc3)CC2)n1` | 0.8166 |
| `CN(C)c1cc(CNC(=O)c2cc(Cl)ccn2)ccn1` | -5.266 |
| `O=C(O)c1nn(CC2CC2)c2c1CN(S(=O)(=O)c1cccnc1)CC2` | 2.292 |
| `O=C(NCC1CC1)[C@H]1C[C@@H]2CN(S(=O)(=O)Cc3ccccc3)C[C@H]1O2` | -1.41 |
| `O=C1[C@@H]2CCN(Cc3ccoc3)C[C@@H]2OCCN1Cc1cccc(F)c1` | -10.12 |
| `O=C(NCCn1nc2ccccn2c1=O)c1cc(-c2ccccc2)[nH]n1` | -0.1649 |
| `CN1CCC(CNC(=O)CCSc2ccc3c(c2)OCCO3)C1` (stereo unspecified) | -1.802 |
| `O=C(c1cnc(C2CC2)s1)N1CCCC1Cn1cccn1` (stereo unspecified) | -3.076 |
| `COc1ccc(Cl)cc1C(=O)NCc1cnn(C)c1C` | 0.1361 |
| `Cc1ncsc1CN1Cc2cnn(C)c2C(COCC2CC2)C1` (stereo unspecified) | 1.036 |
| `CCOC(=O)CCC(=O)N1CC(c2nc(Cc3ccccc3)no2)C1` | 3.909 |
| `Cc1nc(CNC(=O)N2CCN(c3ccc(Cl)cn3)CC2)no1` | -4.179 |
| `CCc1nnsc1C(=O)N1CCCC1c1c(C)nn(C)c1OC` (stereo unspecified) | 14.44 |
| `CC(C)NC(=O)[C@H](C)NC(=O)N1CCN(c2ccc(Cl)cc2)CC1` | 3.987 |
| `CC(C(=O)N1CCCN(c2ncccc2C#N)CC1)n1ccnc1` (stereo unspecified) | -2.632 |
| `Cc1ccccc1CNc1ccc(S(N)(=O)=O)c(C(F)(F)F)c1` | -4.47 |
| `CN(Cc1cc[nH]n1)C(=O)c1cccc(CCC(C)(C)O)c1` | -2.309 |
| `COCCCNC(=O)CN1CCOC(c2ccccc2)C1` (stereo unspecified) | 5.153 |
| `Cc1ccccc1CNC(Cn1cncn1)c1ccccc1` (stereo unspecified) | 1.487 |
| `CCN1CCc2cc(C(=O)N(C)C)c(NCC3CC3)nc2CC1` | -7.713 |
| `COCCOC(=O)N1CCn2nc(CN(C)Cc3nccs3)cc2C1` | 5.482 |
| `Cc1cc(NC(=O)CN2CCCC(Cn3nc(C)nc3C)C2)n(C)n1` (stereo unspecified) | -1.976 |
| `COc1cccc2c1OCCCN(Cc1c[nH]nc1C(=O)O)C2` | 0.09139 |
| `O=C(Cn1ccc2ccccc21)N1CCC(Oc2cnccn2)CC1` | -5.395 |
| `OC(CNCc1nnc2ccccn12)c1ccc2c(c1)OCO2` (stereo unspecified) | -1.924 |
| `CC(NC(=O)CCCc1ccc(Cl)cc1)c1n[nH]c(=O)[nH]1` (stereo unspecified) | -5.578 |
| `COc1ncccc1C(=O)N1CCN(C(=O)Cc2ccccn2)CC1` | -6.725 |
| `COCCn1cnnc1C1CCCN(C(C)C)C1` (stereo unspecified) | 5.507 |
| `CC(C)c1ccc(OCCC(=O)N2CCC(CC(N)=O)CC2)cc1` | 1.101 |
| `O=C(NCC1(CO)CC1)c1cccc2ccccc12` | -6.201 |
| `Cc1ncsc1-c1nnc(C2CCCN2C(=O)CCn2cccn2)o1` (stereo unspecified) | -7.187 |
| `Cc1ccc(NC(=O)N(C)C)c(C(=O)OCC(=O)NC2CCCC2)c1` | -3.25 |
| `CC(C)c1noc(C(C)N2CCN(Cc3nc4ccccc4[nH]3)CC2)n1` (stereo unspecified) | -2.381 |
| `COc1cc(C)cc(-c2nc3c([nH]2)CCNC3)c1OC` | 7.542 |
| `CC(C)c1nc(CN2CCN(CC3CCCO3)CC2)cs1` (stereo unspecified) | -0.5473 |
| `COCc1cccc(C(=O)N2CCCCC2c2nccs2)c1` (stereo unspecified) | 0.3912 |
| `CN1CCCN(C[C@H]2C[C@H](CO)CN(Cc3cccnc3N)C2)CC1` | 9.391 |
| `CN(Cc1cncs1)C1CCN(C(=O)OC(C)(C)C)CC1` | -3.827 |
| `CCN(C(=O)COC)C(c1cccnc1)c1cc(C)cc(C)c1` (stereo unspecified) | -4.194 |

6 of the entries, repeated:

structure	percent effect
CCOCCCNC(=O)C(C)n1cc(Br)cn1 (stereo unspecified)	1.864
CC(=O)N1CCC2(CCCN(Cc3ccc(Cl)c(C(F)(F)F)c3)C2)C1 (stereo unspecified)	1.246
CN(C)c1cc(CNC(=O)c2cc(Cl)ccn2)ccn1	-5.266
COCCCNC(=O)CN1CCOC(c2ccccc2)C1 (stereo unspecified)	5.153
COc1ccc(Cl)cc1C(=O)NCc1cnn(C)c1C	0.1361
Cc1noc(C)c1CNC1CCN(c2ccccc2OC(F)F)C1 (stereo unspecified)	-1.083